Measured values reported in article PMC2734569, “Functional mapping of the fission yeast DNA polymerase δ B-subunit Cdc1 by site-directed and random pentapeptide insertion mutagenesis” (BMC Molecular Biology, 2009).
Results are given in words; binding and its absence hold for the method and conditions named. Tags and fused reporters may be left off the sequences shown.

How the values were obtained:
Experiment in all cases: two-hybrid; LexA-Cdc1 bait (pBTM116 or pBTM116BN) with Gal4-Pol3 prey and co-expressed c-myc-tagged Cdc27 (pAA-Cdc27) in S. cerevisiae CTY10-5d; ONPG liquid culture beta-galactosidase assay, mean of triplicates, as percent of wild-type Cdc1
Cdc1-A3 = target: T1, Cdc1-A3 (Schizosaccharomyces pombe, UniProt P87324 1-462, Asp296Ala)
T1 construct: Cdc1, S. pombe, point mutant; source: yeast two-hybrid fusion, in S. cerevisiae CTY10-5d
T1 sequence (looked up): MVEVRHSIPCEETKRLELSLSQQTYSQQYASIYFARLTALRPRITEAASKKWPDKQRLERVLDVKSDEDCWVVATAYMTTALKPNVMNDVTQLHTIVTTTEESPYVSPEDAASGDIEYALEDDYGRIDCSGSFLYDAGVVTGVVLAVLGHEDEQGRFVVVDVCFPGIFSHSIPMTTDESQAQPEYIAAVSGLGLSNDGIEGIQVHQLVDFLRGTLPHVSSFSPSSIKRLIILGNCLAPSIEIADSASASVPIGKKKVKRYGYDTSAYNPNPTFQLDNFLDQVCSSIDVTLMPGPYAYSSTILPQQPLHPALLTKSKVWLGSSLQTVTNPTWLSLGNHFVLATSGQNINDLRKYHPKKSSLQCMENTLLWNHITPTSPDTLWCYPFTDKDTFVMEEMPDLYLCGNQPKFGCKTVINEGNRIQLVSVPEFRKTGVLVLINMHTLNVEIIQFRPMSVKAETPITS

Cdc1-J16 = target: T2, Cdc1-J16 (Schizosaccharomyces pombe, UniProt P87324 1-462, Val-GlyGlyThrProVal-Asp)
T2 construct: Cdc1, S. pombe, with a pentapeptide inserted after residue 160; source: yeast two-hybrid fusion, in S. cerevisiae CTY10-5d
T2 sequence (looked up): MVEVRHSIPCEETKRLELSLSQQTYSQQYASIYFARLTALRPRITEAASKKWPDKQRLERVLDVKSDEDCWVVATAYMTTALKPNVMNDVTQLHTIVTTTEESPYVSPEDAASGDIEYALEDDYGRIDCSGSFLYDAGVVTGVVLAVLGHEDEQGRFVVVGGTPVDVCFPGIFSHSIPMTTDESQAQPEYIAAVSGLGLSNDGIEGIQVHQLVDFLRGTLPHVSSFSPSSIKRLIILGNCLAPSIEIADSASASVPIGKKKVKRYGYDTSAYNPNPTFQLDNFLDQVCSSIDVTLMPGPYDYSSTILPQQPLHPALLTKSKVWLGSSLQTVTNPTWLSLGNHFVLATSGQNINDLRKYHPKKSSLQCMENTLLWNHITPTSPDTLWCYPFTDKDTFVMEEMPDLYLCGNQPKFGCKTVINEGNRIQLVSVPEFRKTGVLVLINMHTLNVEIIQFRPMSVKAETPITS

Cdc1-J1 = target: T3, Cdc1-J1 (Schizosaccharomyces pombe, UniProt P87324 1-462, Thr-GlyValProLeuThr-Gly)
T3 construct: Cdc1, S. pombe, with a pentapeptide inserted after residue 141; source: yeast two-hybrid fusion, in S. cerevisiae CTY10-5d
T3 sequence (looked up): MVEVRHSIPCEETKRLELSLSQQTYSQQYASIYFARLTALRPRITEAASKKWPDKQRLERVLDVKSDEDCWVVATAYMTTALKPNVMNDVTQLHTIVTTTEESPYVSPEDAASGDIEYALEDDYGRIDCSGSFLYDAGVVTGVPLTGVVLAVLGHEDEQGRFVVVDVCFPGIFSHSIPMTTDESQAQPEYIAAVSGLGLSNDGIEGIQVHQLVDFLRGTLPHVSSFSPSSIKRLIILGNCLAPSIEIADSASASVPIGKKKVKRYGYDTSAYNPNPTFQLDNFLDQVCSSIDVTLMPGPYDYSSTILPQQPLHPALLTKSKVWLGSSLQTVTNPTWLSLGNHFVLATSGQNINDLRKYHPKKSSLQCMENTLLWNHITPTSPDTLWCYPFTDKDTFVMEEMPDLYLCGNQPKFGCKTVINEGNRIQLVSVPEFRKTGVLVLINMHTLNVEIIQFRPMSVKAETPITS

Cdc1-J10 = target: T4, Cdc1-J10 (Schizosaccharomyces pombe, UniProt P87324 1-462, Tyr-ArgGlyThrProTyr-Met)
T4 construct: Cdc1, S. pombe, with a pentapeptide inserted after residue 77; also called J11; E6; source: yeast two-hybrid fusion, in S. cerevisiae CTY10-5d
T4 sequence (looked up): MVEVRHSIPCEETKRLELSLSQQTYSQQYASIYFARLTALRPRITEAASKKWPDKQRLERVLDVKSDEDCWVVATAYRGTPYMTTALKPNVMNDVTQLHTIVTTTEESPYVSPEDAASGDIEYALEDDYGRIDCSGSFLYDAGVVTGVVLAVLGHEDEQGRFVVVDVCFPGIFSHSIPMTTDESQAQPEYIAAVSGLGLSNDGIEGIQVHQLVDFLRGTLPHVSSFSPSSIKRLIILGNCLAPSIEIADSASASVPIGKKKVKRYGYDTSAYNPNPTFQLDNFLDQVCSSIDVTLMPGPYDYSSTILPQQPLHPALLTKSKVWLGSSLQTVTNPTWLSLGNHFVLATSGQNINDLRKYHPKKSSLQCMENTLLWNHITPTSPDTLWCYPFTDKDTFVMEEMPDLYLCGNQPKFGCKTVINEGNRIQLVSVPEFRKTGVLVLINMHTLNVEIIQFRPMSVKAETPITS

binding (Cdc1-A3): no binding (tested: <1% of wild type)
binding (Cdc1-J10): no binding (tested: <1% of wild type)
B1: Pol3 (fission yeast DNA polymerase delta catalytic subunit) (natural protein, Schizosaccharomyces pombe, UniProt P30316 1-1086, looked up)
chain: MTDRSSNEGVVLNKENYPFPRRNGSIHGEITDVKRRRLSERNGYGDKKGSSSKEKTSSFEDELAEYASQLDQDEIKSSKDQQWQRPALPAINPEKDDIYFQQIDSEEFTEGSVPSIRLFGVTDNGNSILVHVVGFLPYFYVKAPVGFRPEMLERFTQDLDATCNGGVIDHCIIEMKENLYGFQGNEKSPFIKIFTTNPRILSRARNVFERGEFNFEELFPVGVGVTTFESNTQYLLRFMIDCDVVGMNWIHLPASKYQFRYQNRVSNCQIEAWINYKDLISLPAEGQWSKMAPLRIMSFDIECAGRKGVFPDPSIDPVIQIASIVTQYGDSTPFVRNVFCVDTCSQIVGTQVYEFQNQAEMLSSWSKFVRDVDPDVLIGYNICNFDIPYLLDRAKSLRIHNFPLLGRIHNFFSVAKETTFSSKAYGTRESKTTSIPGRLQLDMLQVMQRDFKLRSYSLNAVCSQFLGEQKEDVHYSIITDLQNGTADSRRRLAIYCLKDAYLPQRLMDKLMCFVNYTEMARVTGVPFNFLLARGQQIKVISQLFRKALQHDLVVPNIRVNGTDEQYEGATVIEPIKGYYDTPIATLDFSSLYPSIMQAHNLCYTTLLDSNTAELLKLKQDVDYSVTPNGDYFVKPHVRKGLLPIILADLLNARKKAKADLKKETDPFKKAVLDGRQLALKVSANSVYGFTGATNGRLPCLAISSSVTSYGRQMIEKTKDVVEKRYRIENGYSHDAVVIYGDTDSVMVKFGVKTLPEAMKLGEEAANYVSDQFPNPIKLEFEKVYFPYLLISKKRYAGLFWTRTDTYDKMDSKGIETVRRDNCPLVSYVIDTALRKMLIDQDVEGAQLFTKKVISDLLQNKIDMSQLVITKALSKTDYAAKMAHVELAERMRKRDAGSAPAIGDRVAYVIIKGAQGDQFYMRSEDPIYVLENNIPIDAKYYLENQLSKPLLRIFEPILGEKASSLLHGDHTRTISMAAPSVGGIMKFAVKVETCLGCKAPIKKGKTALCENCLNRSAELYQRQVAQVNDLEVRFARLWTQCQRCQGSMHQDVICTSRDCPIFYMRIAEHKKLQQSVDLLKRFDEMSW
notes: DNA polymerase delta catalytic subunit Pol3, S. pombe; prey plasmid named pACT-Pol3 in the results and pGAD2F-Pol3 in the methods; also called Gal4-Pol3; pACT-Pol3; source: yeast two-hybrid fusion, in S. cerevisiae CTY10-5d
binding (Cdc1-J16): no binding (tested: <1% of wild type (Table 1))
binding (Cdc1-J1): no binding (tested: <1% of wild type (Table 1))
